According to publication PMC6774027:
These are yes or no findings as the source states them, for the method shown. Binding seen in cells or lysates may run through a third protein. Some entries that bind do so weakly or less than the wild type.

By UniProt entry, the sequences of proteins in these tests, tags left out. Where a name states a change or a piece, a line headed by the entry shows the natural chain unless it says otherwise.
UniProt Q01094: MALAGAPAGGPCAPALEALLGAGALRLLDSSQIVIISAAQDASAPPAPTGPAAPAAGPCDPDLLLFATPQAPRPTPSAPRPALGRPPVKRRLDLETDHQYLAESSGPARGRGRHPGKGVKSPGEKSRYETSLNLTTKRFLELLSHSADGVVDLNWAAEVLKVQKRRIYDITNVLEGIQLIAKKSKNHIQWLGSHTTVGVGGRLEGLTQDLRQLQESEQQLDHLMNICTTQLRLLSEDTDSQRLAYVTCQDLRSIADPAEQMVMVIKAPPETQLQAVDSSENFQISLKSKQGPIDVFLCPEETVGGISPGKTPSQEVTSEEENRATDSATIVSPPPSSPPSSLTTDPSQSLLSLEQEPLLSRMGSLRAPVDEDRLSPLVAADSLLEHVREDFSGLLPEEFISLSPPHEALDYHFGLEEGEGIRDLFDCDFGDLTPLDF
UniProt P09874: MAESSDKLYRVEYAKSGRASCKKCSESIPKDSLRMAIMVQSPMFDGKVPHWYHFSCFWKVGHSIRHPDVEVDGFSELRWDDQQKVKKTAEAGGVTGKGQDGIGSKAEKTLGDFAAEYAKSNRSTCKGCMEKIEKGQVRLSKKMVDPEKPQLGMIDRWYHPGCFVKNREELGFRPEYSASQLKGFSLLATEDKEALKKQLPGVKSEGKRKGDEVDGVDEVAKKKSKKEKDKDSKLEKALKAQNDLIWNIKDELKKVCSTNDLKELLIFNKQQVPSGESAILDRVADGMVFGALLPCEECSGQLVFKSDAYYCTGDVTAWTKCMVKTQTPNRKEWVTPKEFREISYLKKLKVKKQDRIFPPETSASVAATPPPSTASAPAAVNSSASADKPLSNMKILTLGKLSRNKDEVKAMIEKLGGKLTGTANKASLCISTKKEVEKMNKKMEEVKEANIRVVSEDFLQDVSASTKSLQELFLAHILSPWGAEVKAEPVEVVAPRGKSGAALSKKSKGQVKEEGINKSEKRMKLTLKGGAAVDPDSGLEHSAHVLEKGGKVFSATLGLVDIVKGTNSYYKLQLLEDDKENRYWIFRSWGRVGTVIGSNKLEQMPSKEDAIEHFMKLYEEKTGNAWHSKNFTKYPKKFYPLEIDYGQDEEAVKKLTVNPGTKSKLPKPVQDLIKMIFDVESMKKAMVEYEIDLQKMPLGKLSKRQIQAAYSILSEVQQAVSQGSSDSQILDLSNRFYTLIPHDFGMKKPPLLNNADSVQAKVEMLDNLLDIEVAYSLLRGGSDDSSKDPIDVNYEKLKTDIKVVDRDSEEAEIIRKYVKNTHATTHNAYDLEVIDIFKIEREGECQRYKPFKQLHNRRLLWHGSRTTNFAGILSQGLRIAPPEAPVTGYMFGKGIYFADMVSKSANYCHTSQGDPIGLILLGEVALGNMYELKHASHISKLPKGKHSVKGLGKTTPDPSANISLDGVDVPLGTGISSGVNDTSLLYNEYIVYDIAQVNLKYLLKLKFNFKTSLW

How the values were obtained:
[1] = target: E2F1-VC155 (from pBiFC-E2F1-VC155) (UniProt Q01094); assay: split reporter; BiFC; SH-SY5Y cells co-transfected with pBiFC-PARP1-VN173 and pBiFC-E2F1-VC155; confocal images
[2] = target: E2F transcription factor 1 (E2F1), endogenous (human (endogenous in SH-SY5Y)) (UniProt Q01094); assay: co-IP; endogenous proteins in SH-SY5Y cells; antibodies specific for PARP1 or E2F1, bead-bound proteins analysed by Western blot; IgG-bound protein as negative control; also in cells stably transfected with mock, MZF1-AS1, sh-Scb or sh-MZF1-AS1 #2 and those treated with RNase A (20 µg)

## PARP1-VN173 (from pBiFC-PARP1-VN173) (from UniProt P09874 1-1014)
[1]
  binding: binds

## poly(ADP-ribose) polymerase 1 (PARP1), endogenous (from UniProt P09874 1-1014)
[2]
  binding: binds
